This is one part of the list.
The targets below were run with COc1ccc(Cn2ccc3cc(C)c(C(=O)NO)cc32)cc1 (assay: dose-dependent thermal stabilisation call (2D-TPP, DLPTP, 10% FDR) (binary (1 = stabilised)); higher = stabilised by the compound). Settings: system: HL-60 intact cells; concentration range 0.04-10 µM.
Method: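 2D thermal proteome profiling in intact HL-60 cells treated with BRD-3811 (0, 0.04, 0.29, 2, 10 uM) for 90 min at 37 C, then heated 3 min at one of 12 temperatures (42-63.9 C). Soluble protein was quantified by TMT10 MS. The value is the DLPTP call of the paper: dose-dependent thermal stabilisation over all temperatures at 10% FDR (F-test of a dose-response against a flat model); one experiment, one call per tested protein.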

Sequences of proteins named here, by UniProt entry; tags and fusion partners are left off. A change or cut given only in a name is not applied to a line headed by its entry.
UniProt Q96SB8: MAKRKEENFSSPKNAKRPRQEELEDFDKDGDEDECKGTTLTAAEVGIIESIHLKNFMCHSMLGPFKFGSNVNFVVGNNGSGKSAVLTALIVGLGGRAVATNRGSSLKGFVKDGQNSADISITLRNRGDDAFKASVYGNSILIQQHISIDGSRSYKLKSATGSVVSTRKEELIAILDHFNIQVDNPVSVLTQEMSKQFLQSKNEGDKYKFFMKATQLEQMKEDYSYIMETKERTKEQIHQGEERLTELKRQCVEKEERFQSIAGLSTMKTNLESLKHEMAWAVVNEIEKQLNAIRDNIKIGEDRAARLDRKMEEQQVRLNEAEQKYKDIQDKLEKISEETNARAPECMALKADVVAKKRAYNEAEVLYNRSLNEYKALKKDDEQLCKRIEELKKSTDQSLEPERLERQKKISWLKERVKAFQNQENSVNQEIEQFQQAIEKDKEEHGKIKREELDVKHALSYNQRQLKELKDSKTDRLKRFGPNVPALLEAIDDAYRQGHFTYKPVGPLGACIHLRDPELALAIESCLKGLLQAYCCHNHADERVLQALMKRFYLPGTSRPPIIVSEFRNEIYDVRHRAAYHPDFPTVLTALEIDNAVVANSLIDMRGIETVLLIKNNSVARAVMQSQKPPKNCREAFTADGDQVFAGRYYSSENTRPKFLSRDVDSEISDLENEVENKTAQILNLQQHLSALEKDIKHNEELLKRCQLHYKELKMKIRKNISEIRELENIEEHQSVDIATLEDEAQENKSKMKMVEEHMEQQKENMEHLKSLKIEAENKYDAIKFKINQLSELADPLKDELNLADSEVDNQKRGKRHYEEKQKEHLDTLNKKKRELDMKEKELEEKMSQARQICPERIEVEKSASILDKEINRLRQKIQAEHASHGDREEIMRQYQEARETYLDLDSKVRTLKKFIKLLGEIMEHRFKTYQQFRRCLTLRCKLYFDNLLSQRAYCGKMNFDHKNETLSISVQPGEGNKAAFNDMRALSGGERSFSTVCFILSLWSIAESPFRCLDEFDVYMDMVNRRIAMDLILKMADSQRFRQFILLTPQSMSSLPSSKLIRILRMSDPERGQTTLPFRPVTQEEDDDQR
UniProt O60749: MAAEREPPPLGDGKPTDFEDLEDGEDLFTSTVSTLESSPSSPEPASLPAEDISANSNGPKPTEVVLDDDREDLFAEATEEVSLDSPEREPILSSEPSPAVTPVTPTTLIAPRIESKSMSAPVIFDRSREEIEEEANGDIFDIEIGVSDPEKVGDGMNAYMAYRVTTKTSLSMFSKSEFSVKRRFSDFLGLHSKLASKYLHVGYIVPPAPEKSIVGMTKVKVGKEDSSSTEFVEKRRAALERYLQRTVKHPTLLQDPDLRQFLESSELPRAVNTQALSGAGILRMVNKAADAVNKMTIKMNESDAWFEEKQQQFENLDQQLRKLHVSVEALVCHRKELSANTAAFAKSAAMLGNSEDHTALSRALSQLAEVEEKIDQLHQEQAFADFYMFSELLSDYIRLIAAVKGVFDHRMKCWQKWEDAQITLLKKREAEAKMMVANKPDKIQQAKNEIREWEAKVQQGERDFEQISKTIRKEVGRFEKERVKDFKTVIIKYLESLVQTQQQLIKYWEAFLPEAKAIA
UniProt Q8WUX1, whole entry: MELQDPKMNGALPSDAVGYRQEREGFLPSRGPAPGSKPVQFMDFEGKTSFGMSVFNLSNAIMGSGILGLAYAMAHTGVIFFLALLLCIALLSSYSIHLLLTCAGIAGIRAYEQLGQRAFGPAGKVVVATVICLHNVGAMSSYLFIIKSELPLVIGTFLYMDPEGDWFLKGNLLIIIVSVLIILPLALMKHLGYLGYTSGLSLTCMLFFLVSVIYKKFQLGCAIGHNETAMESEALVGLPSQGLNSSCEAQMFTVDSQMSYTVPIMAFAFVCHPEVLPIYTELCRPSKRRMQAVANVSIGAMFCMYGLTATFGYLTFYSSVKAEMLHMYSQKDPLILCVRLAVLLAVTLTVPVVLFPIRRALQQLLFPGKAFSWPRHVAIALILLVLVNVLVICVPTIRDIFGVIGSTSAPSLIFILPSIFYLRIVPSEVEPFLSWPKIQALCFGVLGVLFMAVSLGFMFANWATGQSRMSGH
UniProt Q7Z333: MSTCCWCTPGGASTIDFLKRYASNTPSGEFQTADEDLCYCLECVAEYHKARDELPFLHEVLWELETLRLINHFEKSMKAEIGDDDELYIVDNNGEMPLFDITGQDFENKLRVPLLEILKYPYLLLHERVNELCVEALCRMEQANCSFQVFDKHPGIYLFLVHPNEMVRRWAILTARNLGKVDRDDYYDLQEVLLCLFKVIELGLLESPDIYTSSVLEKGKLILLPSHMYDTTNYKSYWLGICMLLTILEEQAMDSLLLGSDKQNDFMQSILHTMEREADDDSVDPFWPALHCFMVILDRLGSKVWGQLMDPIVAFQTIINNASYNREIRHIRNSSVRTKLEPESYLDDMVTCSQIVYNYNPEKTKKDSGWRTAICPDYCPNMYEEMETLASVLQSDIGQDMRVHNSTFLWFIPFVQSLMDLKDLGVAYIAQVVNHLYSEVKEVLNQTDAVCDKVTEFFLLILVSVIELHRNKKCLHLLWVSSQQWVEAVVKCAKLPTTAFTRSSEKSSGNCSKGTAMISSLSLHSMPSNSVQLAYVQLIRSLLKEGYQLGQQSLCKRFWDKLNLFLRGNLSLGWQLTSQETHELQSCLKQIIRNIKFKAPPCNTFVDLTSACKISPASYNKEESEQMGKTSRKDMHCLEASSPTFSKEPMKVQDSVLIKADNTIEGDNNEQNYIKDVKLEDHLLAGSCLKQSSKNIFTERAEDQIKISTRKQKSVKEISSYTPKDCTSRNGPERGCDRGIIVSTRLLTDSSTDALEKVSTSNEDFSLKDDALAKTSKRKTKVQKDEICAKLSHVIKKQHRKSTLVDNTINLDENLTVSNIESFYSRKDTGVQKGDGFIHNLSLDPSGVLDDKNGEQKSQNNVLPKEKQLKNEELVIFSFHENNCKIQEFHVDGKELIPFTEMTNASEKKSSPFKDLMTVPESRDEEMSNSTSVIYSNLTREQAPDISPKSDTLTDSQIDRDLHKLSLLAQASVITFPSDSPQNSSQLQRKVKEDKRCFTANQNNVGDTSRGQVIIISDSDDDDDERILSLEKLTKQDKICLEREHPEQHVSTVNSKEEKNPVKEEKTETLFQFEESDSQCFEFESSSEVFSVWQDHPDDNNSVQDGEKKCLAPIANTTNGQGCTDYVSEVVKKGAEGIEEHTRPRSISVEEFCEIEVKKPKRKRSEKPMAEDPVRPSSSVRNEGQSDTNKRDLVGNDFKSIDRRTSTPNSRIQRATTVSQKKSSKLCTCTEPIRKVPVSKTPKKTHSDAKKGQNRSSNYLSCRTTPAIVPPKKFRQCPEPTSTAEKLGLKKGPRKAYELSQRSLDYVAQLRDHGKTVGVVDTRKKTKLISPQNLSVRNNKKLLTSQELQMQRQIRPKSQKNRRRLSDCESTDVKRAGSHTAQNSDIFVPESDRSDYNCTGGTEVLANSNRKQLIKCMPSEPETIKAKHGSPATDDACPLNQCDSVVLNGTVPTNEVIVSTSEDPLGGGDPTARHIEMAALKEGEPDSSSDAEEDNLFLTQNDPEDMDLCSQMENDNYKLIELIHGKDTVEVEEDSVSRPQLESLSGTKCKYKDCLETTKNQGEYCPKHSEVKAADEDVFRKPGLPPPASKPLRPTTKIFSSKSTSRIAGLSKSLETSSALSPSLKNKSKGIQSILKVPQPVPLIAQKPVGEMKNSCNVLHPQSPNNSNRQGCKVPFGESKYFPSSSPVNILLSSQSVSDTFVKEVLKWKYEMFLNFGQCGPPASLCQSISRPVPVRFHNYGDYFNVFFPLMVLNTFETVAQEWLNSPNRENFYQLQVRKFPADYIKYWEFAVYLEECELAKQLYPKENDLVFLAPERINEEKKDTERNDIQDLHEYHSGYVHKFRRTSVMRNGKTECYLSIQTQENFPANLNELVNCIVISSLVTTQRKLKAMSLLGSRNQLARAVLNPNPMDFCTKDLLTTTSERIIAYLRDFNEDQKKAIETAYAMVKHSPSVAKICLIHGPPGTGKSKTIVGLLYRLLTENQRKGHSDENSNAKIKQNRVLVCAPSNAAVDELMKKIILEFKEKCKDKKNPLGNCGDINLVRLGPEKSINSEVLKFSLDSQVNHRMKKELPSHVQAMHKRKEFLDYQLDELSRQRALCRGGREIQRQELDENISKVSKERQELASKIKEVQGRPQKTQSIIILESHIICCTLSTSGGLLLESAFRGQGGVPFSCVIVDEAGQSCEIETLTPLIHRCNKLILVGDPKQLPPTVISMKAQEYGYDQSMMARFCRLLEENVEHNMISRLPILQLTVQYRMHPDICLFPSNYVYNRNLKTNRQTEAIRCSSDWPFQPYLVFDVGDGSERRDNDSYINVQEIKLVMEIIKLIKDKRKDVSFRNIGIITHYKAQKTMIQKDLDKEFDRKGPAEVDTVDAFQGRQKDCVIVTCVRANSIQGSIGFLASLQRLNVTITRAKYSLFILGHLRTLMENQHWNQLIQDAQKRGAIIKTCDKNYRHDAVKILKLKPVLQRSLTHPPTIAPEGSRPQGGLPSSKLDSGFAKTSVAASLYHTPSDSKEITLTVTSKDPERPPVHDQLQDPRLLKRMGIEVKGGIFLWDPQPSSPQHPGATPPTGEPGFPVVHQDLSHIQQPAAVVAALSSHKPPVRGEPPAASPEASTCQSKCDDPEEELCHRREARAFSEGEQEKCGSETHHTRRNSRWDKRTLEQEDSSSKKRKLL
UniProt Q9H7B4: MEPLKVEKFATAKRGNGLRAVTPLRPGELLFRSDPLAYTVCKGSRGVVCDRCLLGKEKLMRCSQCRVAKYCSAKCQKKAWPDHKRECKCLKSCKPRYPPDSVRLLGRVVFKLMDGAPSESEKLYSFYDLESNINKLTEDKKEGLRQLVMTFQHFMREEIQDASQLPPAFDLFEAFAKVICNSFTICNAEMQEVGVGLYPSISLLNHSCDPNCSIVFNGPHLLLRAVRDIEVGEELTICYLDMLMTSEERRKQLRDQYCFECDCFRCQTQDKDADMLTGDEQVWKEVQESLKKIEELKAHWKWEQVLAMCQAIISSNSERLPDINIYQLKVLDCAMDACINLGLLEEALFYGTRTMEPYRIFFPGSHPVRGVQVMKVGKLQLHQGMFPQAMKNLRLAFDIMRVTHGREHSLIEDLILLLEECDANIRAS
UniProt Q7Z7L1: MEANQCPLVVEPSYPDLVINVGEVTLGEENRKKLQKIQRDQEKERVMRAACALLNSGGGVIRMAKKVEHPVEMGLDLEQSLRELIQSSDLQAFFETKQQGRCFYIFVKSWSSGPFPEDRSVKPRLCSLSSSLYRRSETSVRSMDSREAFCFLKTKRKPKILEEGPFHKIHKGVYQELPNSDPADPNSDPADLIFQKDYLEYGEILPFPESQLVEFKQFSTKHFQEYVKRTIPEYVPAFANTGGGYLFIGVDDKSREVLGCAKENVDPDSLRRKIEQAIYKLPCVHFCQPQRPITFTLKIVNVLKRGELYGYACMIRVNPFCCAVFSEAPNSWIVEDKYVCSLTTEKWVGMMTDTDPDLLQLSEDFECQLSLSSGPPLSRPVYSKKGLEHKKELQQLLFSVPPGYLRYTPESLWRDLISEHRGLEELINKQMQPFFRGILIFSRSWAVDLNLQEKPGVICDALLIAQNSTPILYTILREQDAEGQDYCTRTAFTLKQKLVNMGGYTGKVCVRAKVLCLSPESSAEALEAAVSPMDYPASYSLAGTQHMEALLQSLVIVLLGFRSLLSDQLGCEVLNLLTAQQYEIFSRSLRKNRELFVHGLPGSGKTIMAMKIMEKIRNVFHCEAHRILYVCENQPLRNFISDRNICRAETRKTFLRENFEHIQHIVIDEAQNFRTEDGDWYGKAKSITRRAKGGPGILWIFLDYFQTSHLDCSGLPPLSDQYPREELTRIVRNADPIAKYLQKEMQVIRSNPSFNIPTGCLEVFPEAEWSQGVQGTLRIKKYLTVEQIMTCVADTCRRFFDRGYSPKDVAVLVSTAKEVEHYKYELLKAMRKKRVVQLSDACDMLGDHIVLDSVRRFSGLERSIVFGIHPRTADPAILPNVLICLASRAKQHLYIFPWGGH
UniProt P08579, whole entry: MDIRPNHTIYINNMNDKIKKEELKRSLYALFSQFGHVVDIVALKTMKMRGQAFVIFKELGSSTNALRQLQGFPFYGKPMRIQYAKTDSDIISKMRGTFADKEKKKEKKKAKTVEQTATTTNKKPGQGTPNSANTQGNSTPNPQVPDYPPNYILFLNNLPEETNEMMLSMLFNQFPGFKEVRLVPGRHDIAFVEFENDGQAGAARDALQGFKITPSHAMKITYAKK
UniProt Q9UMY4: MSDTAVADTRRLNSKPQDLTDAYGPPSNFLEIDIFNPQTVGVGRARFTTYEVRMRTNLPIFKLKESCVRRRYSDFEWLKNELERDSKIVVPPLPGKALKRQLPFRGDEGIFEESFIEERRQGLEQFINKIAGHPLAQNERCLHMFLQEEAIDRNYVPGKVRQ

Target	dose-dependent thermal stabilisation call
SMC6 (UniProt Q96SB8)	inactive: 0
SNX2 (UniProt O60749)	inactive: 0
SGPL1 (UniProt O95470)	inactive: 0
SHKBP1 (UniProt Q8TBC3)	inactive: 0
SOAT1 (UniProt P35610)	inactive: 0
SLC38A5 (UniProt Q8WUX1)	inactive: 0
SETX (UniProt Q7Z333)	inactive: 0
SLC35A1 (UniProt P78382)	inactive: 0
SFRS10 (UniProt P62995)	inactive: 0
SLC7A6OS (UniProt Q96CW6)	inactive: 0
SMYD3 (UniProt Q9H7B4)	inactive: 0
SLFN11 (UniProt Q7Z7L1)	inactive: 0
SMARCA2 (UniProt P51531)	inactive: 0
SLC35C1 (UniProt Q96A29)	inactive: 0
SMC3 (UniProt Q9UQE7)	inactive: 0
SNRPB2 (UniProt P08579)	inactive: 0
SMU1 (UniProt Q2TAY7)	inactive: 0
SLC44A1 (UniProt Q8WWI5)	inactive: 0
SLC16A10 (UniProt Q8TF71)	inactive: 0
SLC7A11 (UniProt Q9UPY5)	inactive: 0
SGTB (UniProt Q96EQ0)	inactive: 0
SLC25A26 (UniProt Q70HW3)	inactive: 0
SGOL2 (UniProt Q562F6)	inactive: 0
SNX12 (UniProt Q9UMY4)	inactive: 0
SMPD2 (UniProt O60906)	inactive: 0
SHOC2 (UniProt Q9UQ13)	inactive: 0

Quoted at random: 2 records from the list.
Target	dose-dependent thermal stabilisation call
SLC16A10 (UniProt Q8TF71)	inactive: 0
SMC6 (UniProt Q96SB8)	inactive: 0
